These are yes or no findings as the source states them, for the method shown.
Target: CERT START domain alone (aa 389-618) (human) (UniProt Q9Y5P4)
Assay: SEC-MALS; size-exclusion chromatography coupled to multiangle light scattering of recombinant CERT constructs; absolute molar mass; both purified

B1: CERT START domain alone (aa 389-618) (domain or fragment, UniProt Q9Y5P4-1 389-618)
chain: DVHRFSSQVEEMVQNHMTYSLQDVGGDANWQLVVEEGEMKVYRREVEENGIVLDPLKATHAVKGVTGHEVCNYFWNVDVRNDWETTIENFHVVETLADNAIIIYQTHKRVWPASQRDVLYLSVIRKIPALTENDPETWIVCNFSVDHDSAPLNNRCVRAKINVAMICQTLVSPPEGNQEISRDNILCKITYVANVNPGGWAPASVLRAVAKREYPKFLKRFTSYVQEKTA
- binding: no binding
